Experimental data as given in PubChem BioAssay AID527 (NMMLSC, 2006).
The other results are listed elsewhere or left out. Some results for these compounds are left out of this collection, so the calls shown say nothing about other tests.

Test: S. aureus quorum sensing inhibitors, primary screen, RNAIII-GFP reporter, flow cytometry (AID 527);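 also: 0% = AIP-stimulated control and 100% = unstimulated bacteria without AIP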
Conditions: S. aureus RN6390 RNAIII-GFP reporter, AIP-induced, flow cytometry 3 h; measured here: inhibition of GFP MFI; at 2 µM; stronger effect = higher value

Compound	inhibition [%]
O=C(OC1CN2CCC1CC2)C(CO)(c1ccccc1)c1ccccc1 (stereo unspecified)	6.7
